Record: PubChem BioAssay AID1259281 (Sanger Institute, 2017)

- Screen: 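Find knock-downs that kill colorectal cancer cells alone or strengthen targeted drugs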 (primary screen)
- Cell system: human COLO678 colorectal cancer cell line
- Knock-down reagent: siRNA pool against human genes
- Challenge: anchor drugs at fixed doses: BYL719 1 µM, cetuximab 5 µg/ml or trametinib 10 nM; DMSO vehicle for the siRNA-alone arm
- Detection: 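Surviving cells scaled to non-targeting siRNA control as replicate means; robust z-score for knock-down alone; synergy scores weigh knock-down with drug against the predicted combined effect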
- Scale: robust z-score, siRNA alone: higher = more viable cells; strongly negative means essential; viability, siRNA alone: higher = more surviving cells; synergy score with BYL719 and synergy score with trametinib and synergy score with cetuximab: higher = stronger synergistic killing with drug
- Call rule: 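Essential (knock-down alone) when the siRNA-alone robust z-score is below -3; otherwise no change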
- Meaning of the calls: active = essential (knock-down alone); inactive = no change
The deposit covers 794 reagents; shown is a random part of them. In the full data, 22 (2.8%) were called active. 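Calls rest on knock-down alone only; drug synergy scores play no part in them.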 Unmarked entries are inactive. Viability is capped at 1. Not stated in the record: the amount of reagent, the time to read-out.

The first 3 records, to show the layout:
target gene	robust z-score, siRNA alone	viability, siRNA alone (fraction of control)	synergy score with BYL719	synergy score with trametinib	synergy score with cetuximab
BTK (GeneID 695)	0.473	1	0.00398	0.014	0.0317
CAMK4 (GeneID 814)	0.473	1	0.0181	0.0371	-0.0435
GALK1 (GeneID 2584)	0.473	1	-0.000418	-0.0618	0.0771

Main list, from the first entry:
target gene	robust z-score, siRNA alone	viability, siRNA alone (fraction of control)	synergy score with BYL719	synergy score with trametinib	synergy score with cetuximab
BTK (GeneID 695)	0.473	1	0.00398	0.014	0.0317
CAMK4 (GeneID 814)	0.473	1	0.0181	0.0371	-0.0435
GALK1 (GeneID 2584)	0.473	1	-0.000418	-0.0618	0.0771
BRD4 (GeneID 23476)	0.473	1	0.113	0.0624	-0.0294
MYLK4 (GeneID 340156)	-1.25	0.945	-0.0998	-0.0479	-0.0142
EPHA2 (GeneID 1969)	0.473	1	-0.0919	0.0145	-0.0612
ARAF (GeneID 369)	0.473	1	-0.0919	0.025	0.00131
TYK2 (GeneID 7297)	-0.0418	0.984	-0.057	-0.0407	0.0344
BMAL1 (GeneID 406)	-4.34 (active)	0.847	0.0482	-0.0318	-0.00395
ITPKC (GeneID 80271)	0.473	1	-0.00104	-0.0311	0.0063
GK2 (GeneID 2712)	0.473	1	-0.0892	-0.0224	0.0713
ATM (GeneID 472)	0.473	1	-0.0919	0.00917	-0.00586
TBK1 (GeneID 29110)	0.473	1	0.168	0.0301	-0.0295
PIP5KL1 (GeneID 138429)	-1.68	0.932	-0.154	-0.0185	-0.132
MASTL (GeneID 84930)	-0.0645	0.983	-0.107	-0.011	0.0575
TAOK3 (GeneID 51347)	0.473	1	0.137	0.114	0.0608
AKT3 (GeneID 10000)	0.473	1	-0.0521	0.0441	0.00902
WNK3 (GeneID 65267)	0.473	1	-0.0278	0.00319	-0.0681
CKS1B (GeneID 1163)	0.473	1	0.102	0.0229	-0.0681
CSNK1A1 (GeneID 1452)	-2	0.921	-0.0578	0.0442	-0.031
IKBKB (GeneID 3551)	0.285	0.994	-0.0973	0.0815	0.0718
PSTK (GeneID 118672)	0.473	1	-0.0919	0.115	0.02
BRWD1 (GeneID 54014)	-0.211	0.978	0.0403	-0.0804	0.075
TEC (GeneID 7006)	-1.17	0.948	0.0706	-0.0579	0.00734
PRKAA2 (GeneID 5563)	0.473	1	-0.00243	0.0756	-0.027
FGFR1 (GeneID 2260)	0.473	1	-0.0919	0.0349	0.0124
STK17A (GeneID 9263)	-0.477	0.97	-0.00387	0.0283	0.046
NR2F2 (GeneID 7026)	0.473	1	0.136	0.0244	-0.018
NR4A2 (GeneID 4929)	-2.71	0.899	-0.0619	0.0619	0.0573
RPS6KA3 (GeneID 6197)	0.473	1	-0.00372	0.142	-0.0376
N4BP2 (GeneID 55728)	0.473	1	0.0411	0.0399	-0.012
MAP3K3 (GeneID 4215)	0.473	1	0.143	0.0148	0.0902
PBK (GeneID 55872)	0.473	1	0.0498	0.116	0.114
CAMK1 (GeneID 8536)	0.473	1	0.0563	-0.014	0.0242
